In the supplement of paper PMC12819154, “High-throughput peptide-centric local stability assay extends protein–ligand identification to membrane proteins, tissues and bacteria” (Nature Structural & Molecular Biology, 2025) one finds log2 fold change data, which are given here for 38 targets.

Amino acid sequences for entries named in this document (tags omitted). A change or cut given only in a name is not applied to a line headed by its entry.
UniProt O00444: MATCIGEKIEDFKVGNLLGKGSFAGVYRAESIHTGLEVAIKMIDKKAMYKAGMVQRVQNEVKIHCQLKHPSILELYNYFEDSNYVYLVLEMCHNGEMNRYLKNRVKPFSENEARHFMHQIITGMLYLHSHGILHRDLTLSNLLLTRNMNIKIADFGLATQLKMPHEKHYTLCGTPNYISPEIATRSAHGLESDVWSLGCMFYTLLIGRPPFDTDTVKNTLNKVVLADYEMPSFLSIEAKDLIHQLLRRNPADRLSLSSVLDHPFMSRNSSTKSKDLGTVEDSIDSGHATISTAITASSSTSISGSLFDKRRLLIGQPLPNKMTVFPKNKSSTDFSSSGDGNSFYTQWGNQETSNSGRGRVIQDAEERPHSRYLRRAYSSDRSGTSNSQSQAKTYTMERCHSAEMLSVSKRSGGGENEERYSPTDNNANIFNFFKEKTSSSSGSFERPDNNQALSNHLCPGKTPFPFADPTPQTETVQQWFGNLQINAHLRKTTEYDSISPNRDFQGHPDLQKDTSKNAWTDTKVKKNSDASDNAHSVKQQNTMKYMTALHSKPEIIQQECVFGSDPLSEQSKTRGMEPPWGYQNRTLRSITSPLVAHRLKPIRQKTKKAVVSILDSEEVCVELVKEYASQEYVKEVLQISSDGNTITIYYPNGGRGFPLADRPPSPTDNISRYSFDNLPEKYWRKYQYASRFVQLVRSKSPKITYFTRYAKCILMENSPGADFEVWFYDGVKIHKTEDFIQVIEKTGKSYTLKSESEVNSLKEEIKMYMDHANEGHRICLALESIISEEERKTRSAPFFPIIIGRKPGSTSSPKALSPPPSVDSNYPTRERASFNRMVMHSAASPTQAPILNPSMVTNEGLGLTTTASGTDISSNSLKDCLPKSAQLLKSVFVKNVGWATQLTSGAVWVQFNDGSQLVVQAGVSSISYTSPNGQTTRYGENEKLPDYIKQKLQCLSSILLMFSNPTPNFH
UniProt O00764: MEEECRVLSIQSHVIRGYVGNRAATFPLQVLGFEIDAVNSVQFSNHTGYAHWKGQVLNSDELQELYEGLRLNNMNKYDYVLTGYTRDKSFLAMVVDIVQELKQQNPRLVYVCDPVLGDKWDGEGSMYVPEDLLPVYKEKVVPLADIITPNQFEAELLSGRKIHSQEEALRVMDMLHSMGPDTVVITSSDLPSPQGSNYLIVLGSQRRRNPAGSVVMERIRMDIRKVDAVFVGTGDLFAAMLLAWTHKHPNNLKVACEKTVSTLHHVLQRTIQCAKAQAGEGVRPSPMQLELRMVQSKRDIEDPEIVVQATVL
UniProt O00232: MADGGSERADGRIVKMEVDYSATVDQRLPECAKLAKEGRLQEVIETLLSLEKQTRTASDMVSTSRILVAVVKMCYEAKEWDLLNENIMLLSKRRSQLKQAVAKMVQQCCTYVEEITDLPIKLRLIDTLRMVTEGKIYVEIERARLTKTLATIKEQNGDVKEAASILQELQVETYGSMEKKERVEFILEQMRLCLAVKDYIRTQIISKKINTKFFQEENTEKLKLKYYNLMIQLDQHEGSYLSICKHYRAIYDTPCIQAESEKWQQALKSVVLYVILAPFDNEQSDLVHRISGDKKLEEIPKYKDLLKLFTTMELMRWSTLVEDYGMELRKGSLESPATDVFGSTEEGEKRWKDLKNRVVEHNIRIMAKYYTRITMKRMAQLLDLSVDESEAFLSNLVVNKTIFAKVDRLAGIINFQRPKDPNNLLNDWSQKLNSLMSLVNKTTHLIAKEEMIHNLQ
UniProt O14770: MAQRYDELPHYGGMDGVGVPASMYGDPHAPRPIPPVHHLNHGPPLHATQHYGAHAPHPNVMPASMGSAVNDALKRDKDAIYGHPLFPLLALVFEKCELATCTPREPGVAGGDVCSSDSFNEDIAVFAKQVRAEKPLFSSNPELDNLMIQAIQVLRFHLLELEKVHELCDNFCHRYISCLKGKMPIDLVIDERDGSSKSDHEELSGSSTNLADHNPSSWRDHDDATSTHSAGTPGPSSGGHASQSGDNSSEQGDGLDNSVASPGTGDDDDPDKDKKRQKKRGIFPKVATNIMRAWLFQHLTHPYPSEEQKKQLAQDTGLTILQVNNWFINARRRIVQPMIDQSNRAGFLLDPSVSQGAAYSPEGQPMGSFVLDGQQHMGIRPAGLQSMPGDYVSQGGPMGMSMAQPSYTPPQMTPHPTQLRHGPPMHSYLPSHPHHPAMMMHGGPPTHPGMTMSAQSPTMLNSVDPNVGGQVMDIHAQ
UniProt O14773: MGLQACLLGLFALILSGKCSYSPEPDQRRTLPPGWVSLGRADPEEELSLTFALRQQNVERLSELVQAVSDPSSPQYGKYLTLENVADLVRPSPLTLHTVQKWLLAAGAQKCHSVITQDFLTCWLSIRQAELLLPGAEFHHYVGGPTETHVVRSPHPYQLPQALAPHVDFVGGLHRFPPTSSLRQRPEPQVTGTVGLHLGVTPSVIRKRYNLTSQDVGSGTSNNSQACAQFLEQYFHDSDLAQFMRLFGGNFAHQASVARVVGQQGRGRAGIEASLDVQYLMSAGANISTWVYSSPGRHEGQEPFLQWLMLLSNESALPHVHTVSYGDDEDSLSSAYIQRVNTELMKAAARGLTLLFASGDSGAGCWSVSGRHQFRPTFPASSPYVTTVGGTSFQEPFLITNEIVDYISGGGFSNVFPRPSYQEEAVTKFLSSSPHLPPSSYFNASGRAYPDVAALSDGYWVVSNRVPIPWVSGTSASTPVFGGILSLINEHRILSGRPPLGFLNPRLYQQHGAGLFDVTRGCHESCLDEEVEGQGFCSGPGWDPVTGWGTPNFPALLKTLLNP
UniProt O15020, whole entry: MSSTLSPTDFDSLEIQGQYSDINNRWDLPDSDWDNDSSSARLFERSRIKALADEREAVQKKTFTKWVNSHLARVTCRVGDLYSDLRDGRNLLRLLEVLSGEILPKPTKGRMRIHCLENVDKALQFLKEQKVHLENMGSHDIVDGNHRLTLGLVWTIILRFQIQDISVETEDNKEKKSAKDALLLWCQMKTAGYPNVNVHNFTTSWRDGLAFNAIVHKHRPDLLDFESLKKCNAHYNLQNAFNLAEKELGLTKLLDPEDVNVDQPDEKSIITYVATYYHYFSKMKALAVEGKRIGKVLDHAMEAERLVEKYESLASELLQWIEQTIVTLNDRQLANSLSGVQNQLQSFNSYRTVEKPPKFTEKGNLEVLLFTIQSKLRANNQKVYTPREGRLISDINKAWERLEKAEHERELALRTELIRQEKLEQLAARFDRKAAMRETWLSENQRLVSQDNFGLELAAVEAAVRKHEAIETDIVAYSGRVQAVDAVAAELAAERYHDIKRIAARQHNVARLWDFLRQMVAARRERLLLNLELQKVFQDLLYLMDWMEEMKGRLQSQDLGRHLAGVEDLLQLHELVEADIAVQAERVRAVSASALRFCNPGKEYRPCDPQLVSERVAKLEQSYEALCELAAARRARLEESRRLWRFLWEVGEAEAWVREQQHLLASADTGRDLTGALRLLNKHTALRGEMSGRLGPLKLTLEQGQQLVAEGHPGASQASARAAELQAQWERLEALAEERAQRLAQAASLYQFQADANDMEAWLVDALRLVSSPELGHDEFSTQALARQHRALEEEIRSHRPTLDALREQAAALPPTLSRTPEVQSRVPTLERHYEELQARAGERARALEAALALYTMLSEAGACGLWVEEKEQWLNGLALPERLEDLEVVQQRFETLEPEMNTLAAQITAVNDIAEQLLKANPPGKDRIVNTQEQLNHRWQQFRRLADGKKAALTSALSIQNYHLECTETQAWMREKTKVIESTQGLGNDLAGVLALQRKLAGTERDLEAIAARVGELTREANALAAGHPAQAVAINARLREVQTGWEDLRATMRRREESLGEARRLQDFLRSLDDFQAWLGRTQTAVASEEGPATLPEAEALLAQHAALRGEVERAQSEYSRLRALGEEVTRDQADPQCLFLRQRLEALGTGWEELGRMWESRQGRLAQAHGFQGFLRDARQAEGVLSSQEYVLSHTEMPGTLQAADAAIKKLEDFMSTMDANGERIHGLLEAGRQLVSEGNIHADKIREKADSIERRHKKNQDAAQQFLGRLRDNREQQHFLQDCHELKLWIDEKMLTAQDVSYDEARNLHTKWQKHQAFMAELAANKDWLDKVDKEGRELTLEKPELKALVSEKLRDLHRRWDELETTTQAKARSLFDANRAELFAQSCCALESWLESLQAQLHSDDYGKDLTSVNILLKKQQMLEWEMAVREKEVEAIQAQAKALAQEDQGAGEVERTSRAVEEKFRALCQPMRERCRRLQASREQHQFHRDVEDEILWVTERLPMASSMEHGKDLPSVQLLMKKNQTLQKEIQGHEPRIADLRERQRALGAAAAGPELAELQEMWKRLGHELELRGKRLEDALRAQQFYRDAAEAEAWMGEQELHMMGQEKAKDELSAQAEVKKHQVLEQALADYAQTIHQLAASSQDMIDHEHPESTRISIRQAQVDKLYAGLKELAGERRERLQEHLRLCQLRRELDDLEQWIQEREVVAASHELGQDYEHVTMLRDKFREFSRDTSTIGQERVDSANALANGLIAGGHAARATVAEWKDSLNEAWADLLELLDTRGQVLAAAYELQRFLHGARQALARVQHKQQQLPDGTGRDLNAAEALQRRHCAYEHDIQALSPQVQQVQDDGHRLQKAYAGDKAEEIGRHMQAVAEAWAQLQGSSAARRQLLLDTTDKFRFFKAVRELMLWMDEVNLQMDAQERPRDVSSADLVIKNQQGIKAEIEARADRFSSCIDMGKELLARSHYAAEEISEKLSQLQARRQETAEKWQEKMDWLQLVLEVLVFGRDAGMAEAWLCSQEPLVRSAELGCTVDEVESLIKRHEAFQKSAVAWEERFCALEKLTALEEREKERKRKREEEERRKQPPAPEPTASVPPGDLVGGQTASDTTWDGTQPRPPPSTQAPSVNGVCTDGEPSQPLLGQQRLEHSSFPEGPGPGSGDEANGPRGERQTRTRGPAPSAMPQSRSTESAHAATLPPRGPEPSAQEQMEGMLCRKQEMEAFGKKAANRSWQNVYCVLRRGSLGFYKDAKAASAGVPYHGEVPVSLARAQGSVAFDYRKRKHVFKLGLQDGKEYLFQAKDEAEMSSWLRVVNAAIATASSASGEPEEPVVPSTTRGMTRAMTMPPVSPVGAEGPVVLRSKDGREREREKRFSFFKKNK
UniProt O15014: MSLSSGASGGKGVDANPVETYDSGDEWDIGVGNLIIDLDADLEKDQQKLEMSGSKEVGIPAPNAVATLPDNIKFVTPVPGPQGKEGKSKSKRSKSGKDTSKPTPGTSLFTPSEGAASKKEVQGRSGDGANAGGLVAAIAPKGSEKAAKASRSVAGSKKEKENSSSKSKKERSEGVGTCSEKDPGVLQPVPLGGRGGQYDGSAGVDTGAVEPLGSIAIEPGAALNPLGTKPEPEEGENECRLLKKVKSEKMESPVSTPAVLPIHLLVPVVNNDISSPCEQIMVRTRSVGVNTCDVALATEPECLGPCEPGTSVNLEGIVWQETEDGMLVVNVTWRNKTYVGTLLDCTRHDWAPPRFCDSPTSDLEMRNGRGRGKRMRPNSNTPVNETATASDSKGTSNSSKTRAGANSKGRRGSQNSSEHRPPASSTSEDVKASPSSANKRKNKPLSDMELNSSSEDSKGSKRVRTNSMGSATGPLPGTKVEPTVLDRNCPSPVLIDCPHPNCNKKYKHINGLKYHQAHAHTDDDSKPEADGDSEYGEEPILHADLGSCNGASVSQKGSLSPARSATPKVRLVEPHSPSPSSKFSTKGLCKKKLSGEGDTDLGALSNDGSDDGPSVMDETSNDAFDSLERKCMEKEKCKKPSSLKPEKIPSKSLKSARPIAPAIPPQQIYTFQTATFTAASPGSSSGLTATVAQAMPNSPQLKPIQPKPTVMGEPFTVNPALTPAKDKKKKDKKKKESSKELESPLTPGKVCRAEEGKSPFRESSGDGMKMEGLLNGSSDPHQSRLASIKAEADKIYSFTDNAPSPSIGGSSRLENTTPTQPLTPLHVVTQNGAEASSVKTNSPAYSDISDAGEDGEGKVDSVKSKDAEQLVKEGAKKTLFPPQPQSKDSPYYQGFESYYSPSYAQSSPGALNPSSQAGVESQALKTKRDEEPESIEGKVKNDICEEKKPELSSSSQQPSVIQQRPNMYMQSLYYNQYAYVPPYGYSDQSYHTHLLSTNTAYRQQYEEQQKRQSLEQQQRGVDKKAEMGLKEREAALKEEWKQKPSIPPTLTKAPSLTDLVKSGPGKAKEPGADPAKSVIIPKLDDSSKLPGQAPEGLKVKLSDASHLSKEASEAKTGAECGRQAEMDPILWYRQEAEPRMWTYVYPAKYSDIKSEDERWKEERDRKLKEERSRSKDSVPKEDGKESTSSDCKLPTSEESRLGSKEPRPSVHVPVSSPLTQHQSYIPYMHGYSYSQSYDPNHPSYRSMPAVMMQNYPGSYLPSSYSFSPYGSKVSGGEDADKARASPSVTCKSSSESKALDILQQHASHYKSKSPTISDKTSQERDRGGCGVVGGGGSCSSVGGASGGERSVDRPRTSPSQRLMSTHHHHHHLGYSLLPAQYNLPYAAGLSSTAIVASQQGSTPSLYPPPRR

The other results are listed elsewhere or left out. Small differences around the control level are noise.

Compound in the assay: Cc1nc(Nc2ncc(C(=O)Nc3c(C)cccc3Cl)s2)cc(N2CCN(CCO)CC2)n1 [dasatinib]
Nature of the assay: log2 fold change of tryptic peptide abundance, ligand vs vehicle (limited proteolysis) (log2 ratio); higher = more trypsin-susceptible (destabilized). To be noted: ligand concentration: 5 uM; sample: K562 cleared lysate.
On to “MAST4 (peptide sequence: GLQNSPAVSLPDPEFKR, peptide start residue: 1882) (UniProt O15021)”, for which the log2 fold change was -0.623.
In the case of “PSMD9 (peptide sequence: LGQSESQGPPR, peptide start residue: 124) (UniProt O00233)” it was 0.299; in that of “NVL (peptide sequence: TLFVGLPPPADR, peptide start residue: 743) (UniProt O15381)”, 0.319.
In the case of “UniProt O00444 (peptide sequence: VIQDAEERPHSR, peptide start residue: 360)” it was 0.444.
In the case of “UniProt O15042 (peptide sequence: EKEKELER, peptide start residue: 886)” it was 0.652; in that of “PDXK (peptide sequence: IHSQEEALR, peptide start residue: 162) (UniProt O00764)”, 0.593; in that of “ESPN (peptide sequence: SLKPTPQSK, peptide start residue: 664) (UniProt B1AK53)”, -0.585.
Consider “SNAP23 (peptide sequence: IEEGLDQINKDMR, peptide start residue: 55) (UniProt O00161)”, for which the log2 fold change is -0.0649.
Consider “ARPC2 (peptide sequence: VFMQEFK, peptide start residue: 180) (UniProt O15144)”, for which the log2 fold change is -0.0981.
In the case of “LIN7A (peptide sequence: ATVAAFAASEGHSHPR, peptide start residue: 77) (UniProt O14910)” it was 0.122; in that of “UniProt O14604 (peptide sequence: KTETQEK, peptide start residue: 20)”, 0.0503; in that of “IFIT3 (peptide sequence: LSDAQIYVDKVK, peptide start residue: 110) (UniProt O14879)”, 0.569.
Turning to “CHD1 (peptide sequence: ELEPFLLR, peptide start residue: 689) (UniProt O14646)”, the log2 fold change was -0.283.
On to “COPE (peptide sequence: DSIVAELDR, peptide start residue: 98) (UniProt O14579)”, for which the log2 fold change is 0.296.
As for “UniProt O14972 (peptide sequence: SVELQLVR, peptide start residue: 208)”, the figure is -0.136.
In the case of “DFFA (peptide sequence: ASPPGDLQNPKR, peptide start residue: 314) (UniProt O00273)” it was -0.174.
Turning to “UniProt D6RIA3 (peptide sequence: TGGVAGK, peptide start residue: 1408)”, the log2 fold change was determined as 0.145.
In the case of “SEC16A (peptide sequence: RSSLSSHSHQSQIYR, peptide start residue: 1367) (UniProt O15027)” it was 1.29.
Take “SCAMP1 (peptide sequence: EHALAQAELLK, peptide start residue: 79) (UniProt O15126)”: the log2 fold change worked out at 0.093.
In the case of “NACA (peptide sequence: IEDLSQQAQLAAAEKFK, peptide start residue: 1991) (UniProt E9PAV3)” it was -0.0661; in that of “AP4M1 (peptide sequence: SFLPSGSEMR, peptide start residue: 218) (UniProt O00189)”, -0.296.
As for “UniProt O15037 (peptide sequence: EPPGAHGSCHR, peptide start residue: 324)”, the figure is 0.709; as for “PSMD12 (peptide sequence: VEFILEQMR, peptide start residue: 183) (UniProt O00232)”, -0.25; as for “MEIS2 (peptide sequence: SDHEELSGSSTNLADHNPSSWR, peptide start residue: 198) (UniProt O14770)”, 0.0952.
As for “TPP1 (peptide sequence: ILSGRPPLGFLNPR, peptide start residue: 493) (UniProt O14773)”, the figure is -0.0916.
For “SETD1A (peptide sequence: RSENSYQDAFSR, peptide start residue: 300) (UniProt O15047)”, the log2 fold change was -0.206.
In the case of “CLGN (peptide sequence: GVLEQEEKEEK, peptide start residue: 517) (UniProt O14967)” it was -0.08.
In the case of “PSMA7 (peptide sequence: YVAEIEKEKEENEK, peptide start residue: 228) (UniProt O14818)” it was 0.0723.
In the case of “SYNJ2 (peptide sequence: GGEEVLNR, peptide start residue: 308) (UniProt O15056)” it was -0.145.
With “SPTBN2 (peptide sequence: FQIQDISVETEDNKEK, peptide start residue: 157) (UniProt O15020)”, the log2 fold change was -0.339.
In the case of “ZNF609 (peptide sequence: DTSKPTPGTSLFTPSEGAASKK, peptide start residue: 98) (UniProt O15014)” it was 0.484; in that of “UniProt O14771 (peptide sequence: NTTLGFGLK, peptide start residue: 237)”, 0.607.
With “AP3B1 (peptide sequence: TVIGSVLLR, peptide start residue: 1077) (UniProt O00203)”, the log2 fold change was -0.201.
In the case of “IPO8 (peptide sequence: IIVSDHVEFPVR, peptide start residue: 42) (UniProt O15397)” it was 0.0742.
As for “MAGEB2 (peptide sequence: EHFPEILK, peptide start residue: 147) (UniProt O15479)”, the figure is -0.215; as for “GTPBP1 (peptide sequence: HKHEIESGR, peptide start residue: 199) (UniProt O00178)”, -0.209.
As for “UniProt O15530 (peptide sequence: TYYLMDPSGNAHKWCR, peptide start residue: 522)”, the figure is 0.458.
Turning to “AXIN1 (peptide sequence: GVGIKGETSTATPR, peptide start residue: 49) (UniProt O15169)”, the log2 fold change was -0.463.
